Data as given in publication doi:10.1101/2020.06.08.140590.

The chains behind the UniProt entries cited, without tags or fusion partners.
UniProt Q9UKV8: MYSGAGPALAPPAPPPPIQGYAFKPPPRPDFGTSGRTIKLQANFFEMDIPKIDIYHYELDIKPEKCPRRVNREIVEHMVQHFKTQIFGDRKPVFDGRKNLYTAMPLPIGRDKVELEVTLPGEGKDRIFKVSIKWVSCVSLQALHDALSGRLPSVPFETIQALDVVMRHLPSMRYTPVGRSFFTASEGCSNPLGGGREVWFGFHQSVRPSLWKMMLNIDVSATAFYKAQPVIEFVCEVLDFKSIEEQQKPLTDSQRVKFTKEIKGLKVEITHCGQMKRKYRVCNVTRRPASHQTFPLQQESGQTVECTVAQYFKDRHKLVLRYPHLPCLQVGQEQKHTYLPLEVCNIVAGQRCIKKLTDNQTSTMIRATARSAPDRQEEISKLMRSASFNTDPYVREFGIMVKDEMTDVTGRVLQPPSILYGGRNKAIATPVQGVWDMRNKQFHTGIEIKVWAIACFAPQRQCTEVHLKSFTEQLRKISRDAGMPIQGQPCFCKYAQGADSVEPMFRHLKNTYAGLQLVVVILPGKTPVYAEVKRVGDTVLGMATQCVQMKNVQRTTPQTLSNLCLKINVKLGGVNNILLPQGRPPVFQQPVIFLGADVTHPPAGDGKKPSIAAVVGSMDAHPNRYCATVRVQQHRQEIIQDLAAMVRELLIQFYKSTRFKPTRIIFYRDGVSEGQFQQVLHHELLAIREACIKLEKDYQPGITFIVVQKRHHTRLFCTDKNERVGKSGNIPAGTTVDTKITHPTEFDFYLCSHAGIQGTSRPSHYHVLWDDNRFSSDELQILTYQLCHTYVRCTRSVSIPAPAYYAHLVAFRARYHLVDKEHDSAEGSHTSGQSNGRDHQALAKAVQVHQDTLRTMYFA

Legend:
[1] = molecular target: HA-Ago1 (FLAG/HA-tagged Argonaute 1) (human) (UniProt Q9UL18); test: affinity purification with mass spectrometry
[2] = molecular target: HA-Ago2 (FLAG/HA-tagged Argonaute 2) (human) (UniProt Q9UKV8); test: affinity purification with mass spectrometry

binding [1]	binding [2]	Substance
binds	binds	HSC70, endogenous (from UniProt P11142 1-646)
binds	binds	HSPA1A (heat shock 70KDa protein 1A), endogenous (from UniProt P0DMV8 1-641)

Results are given in words; binding and its absence hold for the method and conditions named. Binding seen in cells or lysates may run through a third protein. These calls come from enrichment with a bait or labelling near it, and not all partners need be listed.
